Assay results as given in the supplement of paper PMC6411743.
± gives the standard deviation of the averaged measurements. The entries are a selection whose mix differs from that of the whole data set.

Sequences of proteins named here, by UniProt entry; tags and fusion partners are left off. A change or cut given only in a name is not applied to a line headed by its entry.
UniProt Q9H9A7: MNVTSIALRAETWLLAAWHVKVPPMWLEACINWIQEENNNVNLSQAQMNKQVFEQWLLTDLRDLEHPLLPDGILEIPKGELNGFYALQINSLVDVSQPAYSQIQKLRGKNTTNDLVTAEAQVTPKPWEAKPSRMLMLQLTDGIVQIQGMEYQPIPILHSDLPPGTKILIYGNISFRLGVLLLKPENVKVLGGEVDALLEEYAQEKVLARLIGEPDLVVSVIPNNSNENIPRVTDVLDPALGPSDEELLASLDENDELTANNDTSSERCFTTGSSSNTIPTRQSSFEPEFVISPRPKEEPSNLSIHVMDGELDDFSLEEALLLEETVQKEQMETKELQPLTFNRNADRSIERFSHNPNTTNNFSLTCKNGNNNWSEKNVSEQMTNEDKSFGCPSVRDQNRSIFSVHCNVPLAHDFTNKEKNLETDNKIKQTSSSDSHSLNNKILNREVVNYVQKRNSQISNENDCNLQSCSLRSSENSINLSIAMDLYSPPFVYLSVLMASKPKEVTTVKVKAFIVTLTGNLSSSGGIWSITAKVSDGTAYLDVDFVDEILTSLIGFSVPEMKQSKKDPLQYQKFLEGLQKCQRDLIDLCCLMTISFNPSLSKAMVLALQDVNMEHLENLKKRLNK
UniProt Q8IZQ5, whole entry, looked up: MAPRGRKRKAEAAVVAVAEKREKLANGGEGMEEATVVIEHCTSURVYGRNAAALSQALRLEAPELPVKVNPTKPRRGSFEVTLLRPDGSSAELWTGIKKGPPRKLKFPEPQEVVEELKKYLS
UniProt O95999: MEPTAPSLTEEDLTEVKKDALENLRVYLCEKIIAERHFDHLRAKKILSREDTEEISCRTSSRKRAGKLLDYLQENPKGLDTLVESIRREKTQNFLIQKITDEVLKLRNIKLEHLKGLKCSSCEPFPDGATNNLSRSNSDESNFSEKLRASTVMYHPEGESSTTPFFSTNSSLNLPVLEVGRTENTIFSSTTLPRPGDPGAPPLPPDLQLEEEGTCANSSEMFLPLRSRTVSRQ
UniProt Q5QP82: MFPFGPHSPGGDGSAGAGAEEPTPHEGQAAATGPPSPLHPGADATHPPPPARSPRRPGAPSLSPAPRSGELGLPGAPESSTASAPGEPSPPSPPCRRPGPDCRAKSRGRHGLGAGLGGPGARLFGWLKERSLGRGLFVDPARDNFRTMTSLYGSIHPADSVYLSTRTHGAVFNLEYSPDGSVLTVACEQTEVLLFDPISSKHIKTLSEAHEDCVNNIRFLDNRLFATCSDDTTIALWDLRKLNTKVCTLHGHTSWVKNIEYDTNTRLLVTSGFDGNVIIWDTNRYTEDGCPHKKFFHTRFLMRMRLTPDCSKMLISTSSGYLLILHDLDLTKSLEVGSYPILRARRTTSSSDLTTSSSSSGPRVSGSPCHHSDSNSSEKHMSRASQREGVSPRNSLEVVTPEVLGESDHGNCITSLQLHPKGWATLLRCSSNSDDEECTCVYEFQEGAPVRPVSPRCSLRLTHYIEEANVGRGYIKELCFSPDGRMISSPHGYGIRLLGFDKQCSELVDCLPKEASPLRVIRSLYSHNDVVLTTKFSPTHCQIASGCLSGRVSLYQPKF
UniProt Q9NUL3: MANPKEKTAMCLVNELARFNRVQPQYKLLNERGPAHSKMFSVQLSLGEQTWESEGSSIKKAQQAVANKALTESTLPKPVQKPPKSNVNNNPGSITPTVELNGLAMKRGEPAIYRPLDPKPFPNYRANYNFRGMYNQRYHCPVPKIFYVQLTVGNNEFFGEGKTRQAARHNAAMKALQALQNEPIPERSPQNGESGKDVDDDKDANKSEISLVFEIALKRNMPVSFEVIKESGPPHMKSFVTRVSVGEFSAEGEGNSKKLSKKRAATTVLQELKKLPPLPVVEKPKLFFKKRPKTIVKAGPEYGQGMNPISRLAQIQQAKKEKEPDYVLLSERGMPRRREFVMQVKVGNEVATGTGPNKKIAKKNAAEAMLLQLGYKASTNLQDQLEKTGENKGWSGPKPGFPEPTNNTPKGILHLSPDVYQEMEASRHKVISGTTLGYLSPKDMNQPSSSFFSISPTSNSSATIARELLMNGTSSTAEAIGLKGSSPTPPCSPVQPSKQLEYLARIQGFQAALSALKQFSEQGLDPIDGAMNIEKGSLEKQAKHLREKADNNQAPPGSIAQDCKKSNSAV
UniProt Q86XR7, whole entry, looked up: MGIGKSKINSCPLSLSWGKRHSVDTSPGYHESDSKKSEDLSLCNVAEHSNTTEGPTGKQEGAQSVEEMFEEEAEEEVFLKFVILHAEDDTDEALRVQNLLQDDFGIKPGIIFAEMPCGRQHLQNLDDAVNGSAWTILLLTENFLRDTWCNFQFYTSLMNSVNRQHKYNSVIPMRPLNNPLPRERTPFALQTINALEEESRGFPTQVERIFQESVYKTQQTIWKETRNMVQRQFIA
UniProt O43837: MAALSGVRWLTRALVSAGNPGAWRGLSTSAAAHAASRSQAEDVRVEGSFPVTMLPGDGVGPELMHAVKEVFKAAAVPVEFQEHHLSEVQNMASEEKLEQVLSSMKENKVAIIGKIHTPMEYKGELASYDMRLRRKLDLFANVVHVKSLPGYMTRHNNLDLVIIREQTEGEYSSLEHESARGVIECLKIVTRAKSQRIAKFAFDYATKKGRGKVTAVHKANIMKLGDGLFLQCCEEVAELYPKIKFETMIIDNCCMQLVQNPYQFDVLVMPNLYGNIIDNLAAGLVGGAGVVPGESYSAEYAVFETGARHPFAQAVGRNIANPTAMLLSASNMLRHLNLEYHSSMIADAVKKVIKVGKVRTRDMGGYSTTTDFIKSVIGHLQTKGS
UniProt Q8IW50: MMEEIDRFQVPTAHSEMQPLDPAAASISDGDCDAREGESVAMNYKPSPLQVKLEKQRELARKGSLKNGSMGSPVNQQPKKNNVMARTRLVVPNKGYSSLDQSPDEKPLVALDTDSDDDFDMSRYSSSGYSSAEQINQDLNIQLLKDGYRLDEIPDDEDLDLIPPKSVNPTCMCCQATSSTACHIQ
UniProt Q8NEL9: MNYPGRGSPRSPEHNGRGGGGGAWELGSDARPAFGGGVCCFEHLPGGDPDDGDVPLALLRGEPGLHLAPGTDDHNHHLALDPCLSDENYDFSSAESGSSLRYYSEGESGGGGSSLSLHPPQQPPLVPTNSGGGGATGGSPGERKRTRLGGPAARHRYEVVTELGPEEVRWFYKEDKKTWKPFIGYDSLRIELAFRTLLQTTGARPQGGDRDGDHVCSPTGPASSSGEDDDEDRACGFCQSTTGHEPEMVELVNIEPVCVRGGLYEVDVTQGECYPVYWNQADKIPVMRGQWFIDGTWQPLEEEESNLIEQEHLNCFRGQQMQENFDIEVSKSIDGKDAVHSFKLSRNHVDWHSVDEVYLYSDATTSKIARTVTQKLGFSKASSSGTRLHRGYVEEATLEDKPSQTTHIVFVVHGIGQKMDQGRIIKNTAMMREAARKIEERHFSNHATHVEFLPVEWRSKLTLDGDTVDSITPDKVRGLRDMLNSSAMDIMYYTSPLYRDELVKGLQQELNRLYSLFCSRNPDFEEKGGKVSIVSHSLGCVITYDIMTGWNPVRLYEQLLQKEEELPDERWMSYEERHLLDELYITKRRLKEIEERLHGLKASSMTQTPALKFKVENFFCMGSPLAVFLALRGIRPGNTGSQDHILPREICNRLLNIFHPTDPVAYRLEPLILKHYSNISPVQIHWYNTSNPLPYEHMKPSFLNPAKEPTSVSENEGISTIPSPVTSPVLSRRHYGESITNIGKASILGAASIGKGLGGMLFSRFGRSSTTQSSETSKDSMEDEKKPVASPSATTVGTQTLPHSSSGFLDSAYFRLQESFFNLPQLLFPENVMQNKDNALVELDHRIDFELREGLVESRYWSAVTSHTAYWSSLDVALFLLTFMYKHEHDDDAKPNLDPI
UniProt Q96B45: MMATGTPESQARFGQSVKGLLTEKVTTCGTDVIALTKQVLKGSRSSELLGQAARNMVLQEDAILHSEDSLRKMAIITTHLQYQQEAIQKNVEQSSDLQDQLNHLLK
UniProt P01850: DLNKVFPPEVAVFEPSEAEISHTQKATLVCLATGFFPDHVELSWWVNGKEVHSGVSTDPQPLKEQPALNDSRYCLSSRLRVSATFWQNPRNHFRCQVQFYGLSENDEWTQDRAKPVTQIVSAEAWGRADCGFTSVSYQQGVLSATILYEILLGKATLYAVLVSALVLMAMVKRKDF
UniProt Q96KQ7: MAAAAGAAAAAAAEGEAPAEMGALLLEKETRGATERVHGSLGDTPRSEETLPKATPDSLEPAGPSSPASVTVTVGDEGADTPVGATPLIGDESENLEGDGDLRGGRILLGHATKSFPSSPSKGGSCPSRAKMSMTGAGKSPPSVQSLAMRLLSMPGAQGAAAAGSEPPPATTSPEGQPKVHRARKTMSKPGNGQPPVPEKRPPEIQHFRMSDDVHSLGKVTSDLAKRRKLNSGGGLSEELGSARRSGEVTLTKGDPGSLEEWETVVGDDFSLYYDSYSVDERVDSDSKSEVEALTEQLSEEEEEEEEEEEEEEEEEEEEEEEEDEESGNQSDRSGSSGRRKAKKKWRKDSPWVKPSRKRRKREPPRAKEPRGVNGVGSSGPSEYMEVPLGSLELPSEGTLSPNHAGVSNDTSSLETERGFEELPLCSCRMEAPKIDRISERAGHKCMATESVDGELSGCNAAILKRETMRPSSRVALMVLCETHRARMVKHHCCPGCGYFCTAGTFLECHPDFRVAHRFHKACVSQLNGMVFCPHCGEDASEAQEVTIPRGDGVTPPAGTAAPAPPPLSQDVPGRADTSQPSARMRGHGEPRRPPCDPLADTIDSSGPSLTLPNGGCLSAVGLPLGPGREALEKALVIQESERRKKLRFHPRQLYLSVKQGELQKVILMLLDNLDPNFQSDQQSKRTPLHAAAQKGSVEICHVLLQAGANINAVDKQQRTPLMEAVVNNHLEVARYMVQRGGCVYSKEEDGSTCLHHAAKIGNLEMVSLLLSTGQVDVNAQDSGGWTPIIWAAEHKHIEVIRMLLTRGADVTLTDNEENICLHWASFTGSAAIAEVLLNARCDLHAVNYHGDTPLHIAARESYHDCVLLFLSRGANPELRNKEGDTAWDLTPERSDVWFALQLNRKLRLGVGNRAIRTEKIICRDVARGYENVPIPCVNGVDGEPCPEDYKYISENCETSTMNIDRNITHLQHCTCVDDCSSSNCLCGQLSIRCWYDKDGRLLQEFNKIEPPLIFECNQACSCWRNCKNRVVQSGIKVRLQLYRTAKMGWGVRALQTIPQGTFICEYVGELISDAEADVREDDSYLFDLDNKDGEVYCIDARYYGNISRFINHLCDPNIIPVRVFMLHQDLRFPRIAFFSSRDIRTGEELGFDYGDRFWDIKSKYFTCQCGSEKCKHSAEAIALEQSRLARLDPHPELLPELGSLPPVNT
UniProt P15151: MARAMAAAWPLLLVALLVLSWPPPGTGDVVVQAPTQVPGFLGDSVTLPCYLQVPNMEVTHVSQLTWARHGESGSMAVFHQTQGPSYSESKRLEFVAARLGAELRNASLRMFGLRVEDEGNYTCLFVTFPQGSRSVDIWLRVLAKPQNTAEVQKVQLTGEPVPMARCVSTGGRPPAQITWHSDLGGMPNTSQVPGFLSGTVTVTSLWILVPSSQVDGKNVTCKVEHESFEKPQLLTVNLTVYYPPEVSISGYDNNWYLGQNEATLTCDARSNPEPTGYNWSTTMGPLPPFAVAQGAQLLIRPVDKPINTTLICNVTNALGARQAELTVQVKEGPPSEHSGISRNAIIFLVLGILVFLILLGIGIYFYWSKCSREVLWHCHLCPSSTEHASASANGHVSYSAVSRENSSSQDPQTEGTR
UniProt O75586: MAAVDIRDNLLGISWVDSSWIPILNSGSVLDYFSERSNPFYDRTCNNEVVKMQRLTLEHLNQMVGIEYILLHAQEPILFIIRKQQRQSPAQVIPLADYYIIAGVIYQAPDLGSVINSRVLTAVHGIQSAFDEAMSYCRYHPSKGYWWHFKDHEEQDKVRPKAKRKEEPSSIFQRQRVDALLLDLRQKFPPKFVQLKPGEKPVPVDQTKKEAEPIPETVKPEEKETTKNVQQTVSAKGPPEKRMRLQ
UniProt Q04206, whole entry: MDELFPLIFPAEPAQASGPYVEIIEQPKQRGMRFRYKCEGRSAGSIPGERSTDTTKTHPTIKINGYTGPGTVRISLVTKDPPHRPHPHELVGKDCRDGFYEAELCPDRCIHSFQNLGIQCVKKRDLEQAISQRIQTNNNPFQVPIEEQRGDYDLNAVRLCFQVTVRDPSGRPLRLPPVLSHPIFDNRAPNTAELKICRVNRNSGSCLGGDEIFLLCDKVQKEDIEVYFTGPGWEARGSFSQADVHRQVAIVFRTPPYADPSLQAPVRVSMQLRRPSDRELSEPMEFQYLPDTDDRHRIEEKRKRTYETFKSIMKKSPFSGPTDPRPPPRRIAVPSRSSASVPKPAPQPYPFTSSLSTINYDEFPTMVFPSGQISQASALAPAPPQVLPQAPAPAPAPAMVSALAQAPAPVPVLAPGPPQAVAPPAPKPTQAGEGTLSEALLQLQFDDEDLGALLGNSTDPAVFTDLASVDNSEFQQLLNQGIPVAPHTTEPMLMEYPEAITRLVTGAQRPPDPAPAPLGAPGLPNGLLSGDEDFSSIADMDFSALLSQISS

Compound: Nc1ncnc2c1ncn2[C@@H]1O[C@H](COP(=O)(O)OP(=O)(O)NP(=O)(O)O)[C@@H](O)[C@H]1O [adenylyl imidodiphosphate]
Assay: NP40-soluble protein abundance relative to vehicle (solubility fold change) (ratio); higher = more soluble protein in presence of AMP-PNP
In short: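 Jurkat crude lysate (Dounce-homogenised) was treated with eight concentrations from 0.1 to 10 mM for 10 min at room temperature, then 3 min at 37 °C. It was solubilised with 0.8% NP40 and benzonase (60 min, 4 °C) and ultracentrifuged, and the supernatant was TMT-labelled for LC-MS/MS. Intensities were vsn-normalised, and the value is the fold change against the NP40-processed vehicle per replicate, from three independent experiments.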

Target	NP40-soluble protein abundance (concentration: 1mM)	NP40-soluble protein abundance (concentration: 2mM)	NP40-soluble protein abundance (concentration: 4mM)	NP40-soluble protein abundance (concentration: 6mM)	NP40-soluble protein abundance (concentration: 8mM)	NP40-soluble protein abundance (concentration: 10mM)
A0A087X112|Q9H9A7 (UniProt Q9H9A7)	0.996 ± 0.025	0.994 ± 0.024	1.02 ± 0.035	1.01 ± 0.033	1.02 ± 0.025	1.04 ± 0.02
A0A0A6YYI3|A0A0B4J1V8|Q9NQ55 and related entries (UniProt Q9NQ55)	0.993 ± 0.015	0.991 ± 0.023	1.006 ± 0.003	0.957 ± 0.013	0.956 ± 0.015	0.967 ± 0.025
A0A087WYP2|Q8IZQ5 (UniProt Q8IZQ5)	1.01 ± 0.025	1.05 ± 0.066	1.06 ± 0.068	1.09 ± 0.038	1.11 ± 0.011	1.12 ± 0.081
A0A0A0MRR5|Q96BW1 and related entries (UniProt Q96BW1)	0.991 ± 0.022	0.9931 ± 0.0058	1.01 ± 0.022	0.9909 ± 0.0094	0.993 ± 0.024	0.996 ± 0.016
A0A0A6YY92|P30566 (UniProt P30566)	0.998 ± 0.026	0.963 ± 0.067	0.984 ± 0.013	0.954 ± 0.033	0.96 ± 0.041	0.945 ± 0.044
A0A087WWW9|O95999 (UniProt O95999)	0.986 ± 0.043	1.03 ± 0.089	0.984 ± 0.043	0.994 ± 0.053	0.9647 ± 0.0084	0.992 ± 0.068
A0A0A0MQT4|Q5QP82 and related entries (UniProt Q5QP82)	0.99 ± 0.016	0.961 ± 0.013	0.983 ± 0.036	1.02 ± 0.088	1.02 ± 0.1	1.03 ± 0.14
A0A0C4DFW4|Q5JUR7 (UniProt Q5JUR7)	1 ± 0.025	1.01 ± 0.02	1.03 ± 0.028	1.03 ± 0.06	1.02 ± 0.05	1.04 ± 0.028
MEX3A (UniProt A1L020)	1.03 ± 0.017	1.02 ± 0.015	1.01 ± 0.018	0.997 ± 0.026	0.988 ± 0.026	1 ± 0.044
A0A0U1RRK1|F6XEV2 and related entries (UniProt Q9BPX6)	1 ± 0.049	0.982 ± 0.043	1.02 ± 0.039	1.01 ± 0.034	1.03 ± 0.033	1.02 ± 0.039
A0A0G2JIW1|P0DMV8 and related entries (UniProt P0DMV9+P0DMV8)	1.04 ± 0.021	1.04 ± 0.025	1.04 ± 0.036	1.05 ± 0.049	1.04 ± 0.052	1.05 ± 0.068
A0A0A0MRW7|Q7Z2E3 and related entries (UniProt Q7Z2E3)	1.01 ± 0.013	1.03 ± 0.022	1.077 ± 0.0052	1.05 ± 0.0071	1.08 ± 0.042	1.12 ± 0.033
A0A0U1RRM6|Q8N8S7 and related entries (UniProt Q8N8S7)	1.01 ± 0.028	1.08 ± 0.063	1.04 ± 0.015	1.05 ± 0.047	1.01 ± 0.043	1.05 ± 0.023
A0A087X1Z1|A0A0G2JPW5|A0A0G2JQX1|A0A0G2JSA7|Q96RT8 and related entries (UniProt Q96RT8)	0.946 ± 0.021	1 ± 0.057	0.951 ± 0.032	0.972 ± 0.029	0.962 ± 0.018	0.96 ± 0.016
A0A0G2JHC2|Q6NYC8 (UniProt Q6NYC8)	1.07 ± 0.012	1.14 ± 0.087	1.1 ± 0.035	1.08 ± 0.056	1.07 ± 0.038	1.12 ± 0.023
A0A0C4DGC9|Q8TDR2 (UniProt Q8TDR2)	1 ± 0.036	1.05 ± 0.034	1.06 ± 0.029	1.04 ± 0.042	1.03 ± 0.021	1.06 ± 0.043
A0A0A0MR51|O60427 (UniProt O60427)	1.01 ± 0.034	0.994 ± 0.017	1.01 ± 0.038	0.981 ± 0.013	1.01 ± 0.029	1.02 ± 0.029
A0A087WZ32|A0A087X038|A8K727 and related entries (UniProt Q9HB19)	1 ± 0.048	1.02 ± 0.073	0.997 ± 0.069	0.985 ± 0.061	0.992 ± 0.063	1.02 ± 0.081
A0A0A0MTD1|E7EPX0 and related entries (UniProt Q9NUL3)	1.07 ± 0.024	1.12 ± 0.071	1.13 ± 0.032	1.15 ± 0.037	1.161 ± 0.006	1.22 ± 0.051
A0A0A0MR66|P98175-4 (UniProt P98175)	1.04 ± 0.027	1.1 ± 0.027	1.09 ± 0.024	1.13 ± 0.062	1.12 ± 0.066	1.21 ± 0.062
A0A0C4DFY7|Q6UWW8 (UniProt Q6UWW8)	1.03 ± 0.033	1.02 ± 0.022	1.02 ± 0.056	1.01 ± 0.034	1.03 ± 0.029	1.02 ± 0.015
A0A0J9YXZ6|A0A0J9YY83|Q4VXZ8 and related entries (UniProt Q9NUI1)	1 ± 0.063	0.967 ± 0.034	1.02 ± 0.032	1.024 ± 0.0062	1.06 ± 0.013	1.04 ± 0.041
A0A087X1N3|O75818 and related entries (UniProt O75818)	1.01 ± 0.031	0.943 ± 0.089	0.9846 ± 0.0025	0.967 ± 0.027	0.986 ± 0.027	0.941 ± 0.077
A0A087WXR7|Q5TBB1 (UniProt Q5TBB1)	1.02 ± 0.013	1.02 ± 0.075	0.986 ± 0.019	1.07 ± 0.067	1.06 ± 0.033	1.06 ± 0.025
A0A0G2JK44|A0A140T9E9|H0Y6K2 and related entries (UniProt P25440)	1.02 ± 0.029	1.07 ± 0.038	1.08 ± 0.021	1.11 ± 0.076	1.13 ± 0.049	1.16 ± 0.043
A0A0B4J2E5|Q15269 (UniProt Q15269)	1.05 ± 0.019	1.04 ± 0.098	1.23 ± 0.043	1.38 ± 0.036	1.56 ± 0.074	1.52 ± 0.095

Target	NP40-soluble protein abundance (concentration: 1mM)	NP40-soluble protein abundance (concentration: 2mM)	NP40-soluble protein abundance (concentration: 4mM)	NP40-soluble protein abundance (concentration: 6mM)	NP40-soluble protein abundance (concentration: 8mM)	NP40-soluble protein abundance (concentration: 10mM)
A0A087X0K1|Q9Y376 (UniProt Q9Y376)	1 ± 0.015	0.997 ± 0.019	1.01 ± 0.012	1.02 ± 0.06	1.03 ± 0.042	1.02 ± 0.038
A0A0C4DFN1|Q8IWA4 (UniProt Q8IWA4)	0.999 ± 0.019	1.02 ± 0.012	1.01 ± 0.029	0.979 ± 0.022	0.986 ± 0.023	1 ± 0.049
A0A0A6YYA0|Q86XR7-2|Q9Y3B3 and related entries (UniProt Q9Y3B3+Q86XR7)	0.984 ± 0.053	1 ± 0.037	1.01 ± 0.031	1.05 ± 0.074	1.06 ± 0.039	1.03 ± 0.089
A0A0A0MQX8|Q9NR56 and related entries (UniProt Q9NR56)	0.997 ± 0.04	1.07 ± 0.068	0.998 ± 0.065	1.04 ± 0.029	0.995 ± 0.026	1.04 ± 0.033
A0A0C4DH01|Q9NVU0 and related entries (UniProt Q9NVU0)	1 ± 0.058	1.02 ± 0.019	1.06 ± 0.052	1.03 ± 0.063	1.02 ± 0.064	1.07 ± 0.081
A0A087WZN1|O43837 (UniProt O43837)	0.958 ± 0.032	0.918 ± 0.037	0.938 ± 0.038	0.99 ± 0.061	0.978 ± 0.059	0.961 ± 0.042
A0A0D9SFB1|A0A0D9SFE4|A0A0U1RQP1|Q05193 and related entries (UniProt Q05193)	0.972 ± 0.025	0.921 ± 0.0025	0.975 ± 0.055	0.974 ± 0.067	1 ± 0.031	0.991 ± 0.072
A0A0C4DGQ8|Q6IAN0 (UniProt Q6IAN0)	0.984 ± 0.036	0.96 ± 0.038	0.969 ± 0.026	1.04 ± 0.024	1.04 ± 0.029	1.02 ± 0.03
A0A0A0MRW1|Q5T593 and related entries (UniProt Q8IW50)	0.963 ± 0.057	0.981 ± 0.028	0.952 ± 0.048	0.964 ± 0.044	0.937 ± 0.021	0.923 ± 0.032
A0A087X0H7|Q8NEL9 and related entries (UniProt Q8NEL9)	0.995 ± 0.016	0.982 ± 0.065	1.02 ± 0.024	1.07 ± 0.09	1.05 ± 0.065	1.08 ± 0.12
A0A087WWP8|A0A0C4DGT8|Q5VWQ0 (UniProt Q5VWQ0)	1.08 ± 0.022	1.08 ± 0.032	1.15 ± 0.018	1.17 ± 0.035	1.16 ± 0.027	1.27 ± 0.057
A0A0B4J1R7|Q96B45 (UniProt Q96B45)	0.999 ± 0.017	1.04 ± 0.054	1.01 ± 0.03	0.991 ± 0.024	0.958 ± 0.038	0.982 ± 0.018
A0A087WY00|F8W6H6 and related entries (UniProt Q9Y4I1)	1.9 ± 0.27	1.97 ± 0.29	2.07 ± 0.28	2 ± 0.31	1.96 ± 0.29	2.01 ± 0.24
A0A087WZV8|A0A0G2JN66 (UniProt P01850)	1.03 ± 0.05	0.913 ± 0.028	1.01 ± 0.048	0.979 ± 0.051	1.04 ± 0.013	1.02 ± 0.032
A0A087WYG2|E9PFH7 and related entries (UniProt Q9UPT6)	1.01 ± 0.034	1.03 ± 0.025	1.03 ± 0.025	0.988 ± 0.026	0.981 ± 0.022	1 ± 0.023
A0A0A0MQS2|F5H0Q6 (UniProt Q8N2M8)	1.06 ± 0.049	1.13 ± 0.083	1.04 ± 0.064	1.06 ± 0.1	1.04 ± 0.043	1.06 ± 0.015
A0A087WW84|Q14114 and related entries (UniProt Q14114)	1 ± 0.022	1 ± 0.016	0.9971 ± 0.0034	1 ± 0.014	0.974 ± 0.016	1 ± 0.031
A0A0A0MQS1|Q53H96 (UniProt Q53H96)	1.01 ± 0.036	1.01 ± 0.016	1.06 ± 0.036	1.03 ± 0.029	1.02 ± 0.045	1.05 ± 0.052
A0A0G2JIS2|Q96KQ7 and related entries (UniProt Q96KQ7)	1 ± 0.04	1.03 ± 0.026	1.01 ± 0.02	0.992 ± 0.021	0.987 ± 0.028	0.994 ± 0.024
A0A0A0MSA9|A0A0C4DG49|P15151 and related entries (UniProt P15151)	1.01 ± 0.03	0.997 ± 0.017	0.992 ± 0.033	1.04 ± 0.015	1.046 ± 0.0088	1.03 ± 0.021
A0A0A0MT22|P08575 and related entries (UniProt P08575)	1.01 ± 0.019	1.03 ± 0.066	0.992 ± 0.037	0.9958 ± 0.007	0.98 ± 0.03	0.985 ± 0.023
A0A0A0MRM1|E9PL24 and related entries (UniProt Q5VU43)	0.9748 ± 0.0094	1.04 ± 0.033	0.969 ± 0.012	0.965 ± 0.037	0.9437 ± 0.0022	0.952 ± 0.039
A0A087X0V5|P29728 and related entries (UniProt P29728)	1.13 ± 0.0059	1.07 ± 0.091	1.26 ± 0.049	1.24 ± 0.086	1.358 ± 0.011	1.29 ± 0.02
A0A087WYL7|G3V4A5 and related entries (UniProt O75586)	0.97 ± 0.036	1.01 ± 0.047	0.991 ± 0.036	0.997 ± 0.062	0.977 ± 0.083	0.994 ± 0.083
A0A0D9SEY1|E7ESS2 and related entries (UniProt O95819)	1.04 ± 0.046	1.05 ± 0.046	1.05 ± 0.058	1.01 ± 0.026	1.03 ± 0.059	1.05 ± 0.038
A0A087X0W8|Q04206 and related entries (UniProt Q04206)	0.988 ± 0.025	1.01 ± 0.023	1.01 ± 0.018	1 ± 0.013	0.983 ± 0.044	0.994 ± 0.051

Some of the entries above in another layout:
A0A0G2JIS2|Q96KQ7 and related entries (UniProt Q96KQ7)
  NP40-soluble protein abundance (concentration: 1mM): 1 ± 0.04; NP40-soluble protein abundance (concentration: 2mM): 1.03 ± 0.026; NP40-soluble protein abundance (concentration: 4mM): 1.01 ± 0.02; NP40-soluble protein abundance (concentration: 6mM): 0.992 ± 0.021; NP40-soluble protein abundance (concentration: 8mM): 0.987 ± 0.028; NP40-soluble protein abundance (concentration: 10mM): 0.994 ± 0.024
A0A0A0MSA9|A0A0C4DG49|P15151 and related entries (UniProt P15151)
  NP40-soluble protein abundance (concentration: 1mM): 1.01 ± 0.03; NP40-soluble protein abundance (concentration: 2mM): 0.997 ± 0.017; NP40-soluble protein abundance (concentration: 4mM): 0.992 ± 0.033; NP40-soluble protein abundance (concentration: 6mM): 1.04 ± 0.015; NP40-soluble protein abundance (concentration: 8mM): 1.046 ± 0.0088; NP40-soluble protein abundance (concentration: 10mM): 1.03 ± 0.021
